# Measurements reported in paper PMC10305195.
# The chains behind the UniProt entries cited, without tags or fusion partners. Residues count along the entry.
# UniProt P02769, residues 25-607: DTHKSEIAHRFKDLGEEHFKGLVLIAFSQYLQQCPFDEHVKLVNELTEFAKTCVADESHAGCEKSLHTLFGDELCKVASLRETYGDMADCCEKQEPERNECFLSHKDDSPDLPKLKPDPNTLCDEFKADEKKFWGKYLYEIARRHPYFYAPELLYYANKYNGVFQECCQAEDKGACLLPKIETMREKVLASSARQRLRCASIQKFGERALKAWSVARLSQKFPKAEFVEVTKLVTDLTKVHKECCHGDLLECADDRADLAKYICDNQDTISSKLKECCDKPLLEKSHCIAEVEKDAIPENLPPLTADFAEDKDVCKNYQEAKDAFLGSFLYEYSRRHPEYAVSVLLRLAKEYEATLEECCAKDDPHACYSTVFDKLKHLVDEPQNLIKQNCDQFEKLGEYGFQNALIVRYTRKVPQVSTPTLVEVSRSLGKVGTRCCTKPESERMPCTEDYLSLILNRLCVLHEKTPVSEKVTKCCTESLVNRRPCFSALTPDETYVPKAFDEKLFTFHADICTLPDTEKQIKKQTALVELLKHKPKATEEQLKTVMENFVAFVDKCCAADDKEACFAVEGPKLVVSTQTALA
# UniProt P00588, residues 33-225: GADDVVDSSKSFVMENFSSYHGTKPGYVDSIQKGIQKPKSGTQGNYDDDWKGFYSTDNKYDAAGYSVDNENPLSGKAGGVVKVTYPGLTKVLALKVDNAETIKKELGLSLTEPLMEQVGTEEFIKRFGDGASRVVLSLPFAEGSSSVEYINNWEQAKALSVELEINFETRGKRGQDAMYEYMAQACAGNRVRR
# These are yes or no findings as the source states them, for the method shown.
# Target: BSA (bovine (from the name BSA)) (UniProt P02769)
# Assay: far-Western, overlay or dot blot; both purified
substance,measurement,value
"DTA, A-subunit of diphtheria toxin (amino acids 1-193) without any tag (from UniProt P00588 33-225) (enzyme)",binding,no binding
